One substance from PMC10044144 can be followed below.

The target of the test is MoMih1 (pGADT7-MoMih1, yeast two-hybrid fusion) (Magnaporthe oryzae) (UniProt G4N0K3). The test is described as follows: two-hybrid.

These are yes or no findings as the source states them, for the method shown. Binding calls can cover weak binding; strength is not graded here.

As for “MoCdc28 (pGBKT7-MoCdc28, yeast two-hybrid fusion) (from UniProt G4MZ20)”, the binding result is “binds”.
